Reference: US20230078511A1, “METHODS OF USING MOMELOTINIB TO TREAT JOINT INFLAMMATION” (Sierra Oncology, Inc., priority 2020, published 2023)
At least one structure is not confirmed: it was looked up by name or label, or the drawing left a doubt.

Tested on: CAIA DBA/1 mice
Experiment: Collagen antibody-induced arthritis (CAIA) in DBA/1 mice (Example 2)
Format: in vivo
Settings: 1 mg/kg daily IP; day 4 to day 12
Source text: Regular monitoring of arthritis progression in all animal models is accomplished by measuring hind limb ankle joint diameters with a Vernier's caliper (volume = D × d^2Π/6, D and d are ankle diameters measured in perpendicular axes, D > d). In murine arthritis models, animals are additionally clinically scored with a system assessing swelling and mobility of each animal's limb, as described in […] et al., Arthritis Res. Ther. 8:[…], 2007, which is hereby incorporated by reference in its entirety. Each paw of an experimental animal is assessed separately as follows: 0 - normal, 1 - slight swelling or […], 2 - pronounced swelling, 3 - joint rigidity. The paw scores for each animal are summed giving a maximum of 12 points per mouse. Scoring is performed by a rater blinded to the group assignment. In order to evaluate efficacy of MMB treatment in a second arthritic animal model, arthritis was induced in DBA/1 mice by intravenous injection of collagen antibody cocktail on day 0 followed by intraperitoneal injection of lipopolysaccharide (LPS) on day 3. […] Comparator controls dexamethasone (1 mg/kg) or the TNF-α inhibitor, etanercept (10 mg/kg) were administered daily by intraperitoneal injection beginning on day 0.

C[C@@H]1C[C@H]2[C@@H]3CCC4=CC(=O)C=C[C@]4(C)[C@@]3(F)[C@@H](O)C[C@]2(C)[C@@]1(O)C(=O)CO [Dexamethasone, dexamethasone, reference compound]
all measurements (mean total and rear paw arthritis scores, mean rear paw thickness): reduction
